Measured values as given in PMC6216108 (International Journal for Parasitology: Drugs and Drug …, 2018).

Protein sequences, listed by entry. Tags and fused reporters are not part of them. Lines headed by an entry give the natural chain unless they say otherwise; changes in a name come on top.
UniProt E9AFX2: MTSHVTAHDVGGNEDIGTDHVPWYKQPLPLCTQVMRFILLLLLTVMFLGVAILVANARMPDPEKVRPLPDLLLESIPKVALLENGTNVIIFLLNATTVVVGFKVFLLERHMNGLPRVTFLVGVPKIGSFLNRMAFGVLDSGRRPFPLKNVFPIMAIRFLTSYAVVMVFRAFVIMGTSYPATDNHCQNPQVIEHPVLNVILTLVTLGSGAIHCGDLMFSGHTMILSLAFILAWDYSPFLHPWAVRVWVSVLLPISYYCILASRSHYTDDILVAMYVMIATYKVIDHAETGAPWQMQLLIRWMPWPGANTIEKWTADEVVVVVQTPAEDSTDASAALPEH

Target: L. major IPC synthase (inositolphosphorylceramide synthase, LmjFIPCS) (Leishmania major, UniProt E9AFX2)
Experiment: biochemical

`CC/C(=C(\c1ccccc1)c1ccc(OCCN(C)C)cc1)c1ccccc1` [Tamoxifen] showed an IC50 of 8.48 µM.
